# From PubChem BioAssay AID493014 (National Center for Advancing Translational Sciences (NCATS), 2011)
# The campaign covered roughly 340,000 compounds. About 170 (0.05%) were called active. Inconclusive means that the source gave no clear call. Such entries were picked first, then a sample of the others. Calls follow the shape of the dose curve; as a rule, active = well fitted inhibition curve with a large enough effect in the signal ratio, with a control signal flat (not every such curve was filed as active); inconclusive = small, poorly fitted or top-dose-only effect, or effect the other way, or a change in a side signal; inactive = flat fitted curve, though single readings scatter; the % refers to the signal ratio. A potency beside an inconclusive call is a rough fit, not a confirmed value.
# Experiment: qHTS Assay to Find Inhibitors of Chronic Active B-Cell Receptor Signaling;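 as to activity change, negative = inhibition: plate controls were basal doxycycline-induced cells for no effect and cells given 10 µM MG132 for full effect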
# Conditions: ABC-DLBCL IkBa-CBG/CBR reporter, luminescence ratio (green luciferase fused to IkBa over red control in TMD8 lymphoma cells), 4 h; activity change, negative = inhibition: at 46.1 µM (top of the series) unless noted
# In short: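 TMD8 human ABC-DLBCL cells with doxycycline-inducible IκBα–green luciferase fusion and unfused red luciferase, in 0.5% FBS medium; compounds up to 46 uM, 4 h at 37C. Green/red luminescence ratio, filter-overlap corrected, fitted to concentration-response curves.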
# Potency is read from the fitted curve at half-maximal effect.
Structure (SMILES),Potency,"activity change, negative = inhibition"
Cc1ccsc1C1NC(=O)c2c(sc3c2CCCC3)N1 (stereo not given),"inconclusive: 0.58 µM [falling, full curve, poor fit]",–
CC1(C)Cc2c(C#N)c(NC3CCCCC3)nc(-c3ccco3)c2CO1,"inconclusive: 5.8 µM [rising, full curve, poor fit]",–
Cc1ccc(S(=O)(=O)Nc2ccc(Nc3ccccc3)cc2)cc1,–,inactive
CCOc1ccc2nc(NC(=O)c3ccco3)sc2c1,"inconclusive: 25.1 µM [falling, partial curve]",–
COc1ccc(/C=C2\SC(=O)NC2=S)cc1OC,"inconclusive: 20.6 µM [falling, partial curve, poor fit]",–
Cc1cccc(-n2c(C)cc(/C=N\NC(=O)c3cccs3)c2C)c1,"inconclusive: 20.6 µM [falling, single point]",–
O=c1c(-c2ccc(O)cc2)coc2c([C@@H]3O[C@H](CO)[C@@H](O)[C@H](O)[C@H]3O)c(O)ccc12,"inconclusive: 6.51 µM [rising, partial curve, poor fit]",–
S=C(Nc1ccccc1)Nc1nc2ccccc2n1CCOc1ccccc1,–,inactive
COC(=O)/C=C/C(=O)Nc1cccnc1,–,inconclusive: 0.0908%
CCC(C)c1ccc(Nc2ncccc2C#N)cc1 (stereo not given),–,inactive
Cc1cccc(C)c1OCC(=O)N1CCc2ccccc2C1,–,inactive
CC(C)(C)c1csc(NNC(=O)c2ccc(Cl)cc2)n1,"inconclusive: 35.5 µM [falling, single point]",–
CC(OC(=O)c1ccc(Cl)c(S(=O)(=O)N2CCc3ccccc32)c1)C(=O)Nc1ncc(Cl)cc1Cl (stereo not given),–,inactive
COc1ccc(Cl)cc1NC(=O)CN(C)C(=O)c1cc2c(F)cccc2s1,–,inactive
Fc1ccccc1NC(=S)N(CCN1CCCCC1)Cc1ccco1,–,inactive
O=C(NCCCn1ccnc1)c1cc(-c2ccncc2)nc2ccccc12,–,inactive
Cc1ccc(C)n1-c1cc([N+](=O)[O-])ccc1-n1ccnc1,–,inconclusive: 8.45%
Cc1ccc(-c2nnc(SCc3ccccc3)o2)cc1,–,inactive
CN1CCC(=NNC(=O)CSCc2ccccc2)CC1,–,inconclusive: -5.04%
CC(C)n1cnc2c(NCc3ccc(S(N)(=O)=O)cc3)nc(NCc3ccc(S(N)(=O)=O)cc3)nc21,–,inconclusive: 1.2%
O=C(Nc1ccccc1)C(=O)c1c[nH]c2ccccc12,–,inconclusive: 425%
COc1cccc(OCC(O)CN2CCN(c3ccccc3)CC2)c1 (stereo not given),–,inconclusive: -6.4%
CCOC(=O)c1c(C)[nH]c(C(=O)OCC(=O)N(C)c2c(N)n(Cc3ccccc3)c(=O)[nH]c2=O)c1C,–,inconclusive: 10.2%
COc1ccc(CCNCc2ccc(OCc3ccccc3)cc2)cc1,"inconclusive: 12.6 µM [falling, partial curve, poor fit]",–
COc1ccc(S(=O)(=O)N(C)C[C@H]2Oc3ccc(NC(=O)C4CC4)cc3C(=O)N([C@H](C)CO)C[C@@H]2C)cc1,–,inconclusive: -0.929%
CCCCC(=O)Nc1ccc(C)c(O)c1,–,inconclusive: 3.79%
CCCc1nc(SCC(=O)N2CCc3ccccc3C2)c2ccccc2n1,–,inconclusive: -5.52%

# Gathered by group, the compounds so far containing a thiophene ring, fused or not.
Structure (SMILES),Potency,"activity change, negative = inhibition"
Cc1ccsc1C1NC(=O)c2c(sc3c2CCCC3)N1 (stereo not given),"inconclusive: 0.58 µM [falling, full curve, poor fit]",–
Cc1cccc(-n2c(C)cc(/C=N\NC(=O)c3cccs3)c2C)c1,"inconclusive: 20.6 µM [falling, single point]",–
COc1ccc(Cl)cc1NC(=O)CN(C)C(=O)c1cc2c(F)cccc2s1,–,inactive

# Later entries

Structure (SMILES),Potency,"activity change, negative = inhibition"
COC(=O)c1sccc1NC(=S)N(C)C1CCCCC1,–,inconclusive: 23.1%
S=C1N(c2ccccc2)CN(CCN2CCOCC2)CN1c1ccccc1,–,inconclusive: 1.66%
c1ccc(Oc2nc(N3CCOCC3)nc(N3CCOCC3)n2)cc1,"inconclusive: 3.66 µM [falling, full curve]",–
COc1cccc(N2CCN(C(=O)c3ccc4nc(N5CCC(C)CC5)sc4c3)CC2)c1,"inconclusive: 17.8 µM [falling, partial curve]",–
Cn1cccc1C(=O)OCC(=O)c1c[nH]c2ccccc12,"inconclusive: 32.6 µM [falling, partial curve, poor fit]",–
Cc1ccc(NC(=O)CSc2nnc(-c3ccc(S(=O)(=O)N4CCOCC4)cc3)n2C)cc1,–,inconclusive: 10.7%
O=C(O)/C(=C\C(=O)c1ccccc1)Nc1ccccc1,"inconclusive: 35.5 µM [falling, single point]",–
CCOC(=O)c1c(C)[nH]c(C(=O)CSc2ccccc2)c1C,–,inconclusive: 3.67%
Cc1cc(C(=O)OCC(=O)NCc2ccco2)c(C)n1-c1ccc(F)cc1,"inconclusive: 12.6 µM [falling, partial curve]",–
CCOC(=O)C1=C(COC(=O)c2ncc(Cl)c(Cl)c2Cl)NC(=O)NC1C (stereo not given),–,inconclusive: -4.93%
O=C(OCC(=O)N1CCN(C(=O)c2ccco2)CC1)c1ccc(S(=O)(=O)N2CCCCC2)cc1,–,inconclusive: 3.91%
CNc1ncc(C(=O)c2ccc(F)cc2)s1,"inconclusive: 20 µM [falling, partial curve]",–
CCc1ccc(/C=C2\SC(=S)N(CCCC(=O)Nc3ccccn3)C2=O)cc1,"inconclusive: 5.62 µM [falling, partial curve]",–
O=C(CSc1nc(C2CCCCC2)n(-c2ccccc2)n1)NCCN1C(=O)CSC1=O,–,inconclusive: 3.32%
CCOc1ccc(N(CC(=O)NCc2ccc(F)cc2)C(=O)CCC(=O)Nc2nccs2)cc1,–,inactive
O=C(CN1CCCCCC1=O)OCc1ncc(-c2ccccc2)o1,–,inconclusive: 2.56%
CN(C)c1ccc(C(=O)OCC(=O)NCCNC(=O)COC(=O)c2ccc(N(C)C)cc2)cc1,"inconclusive: 25.1 µM [falling, single point]",–
CCOC(=O)N1CCC(NC(=O)c2oc3c(F)cccc3c2C)CC1,–,inconclusive: -1.26%
O=C(O)C1OC(Oc2c(-c3ccc(O)c(O)c3)oc3cc(O)cc(O)c3c2=O)C(O)C(O)C1O (stereo not given),–,inactive
CCc1nc(NCc2ccco2)c2oc3ccccc3c2n1,–,inconclusive: 8.99%
COc1ccc(-c2nn(-c3ccccc3)cc2/C=N/NS(=O)(=O)c2ccccc2)cc1,–,inconclusive: 7.88%
O=C(CCn1c(SCC(=O)NCc2ccco2)nc2ccccc2c1=O)NCCc1ccccc1,–,inconclusive: -0.756%
Cn1c(=O)c2cc(S(=O)(=O)NCCC(=O)N3CC=C(c4ccccc4)CC3)ccc2n(C)c1=O,–,inconclusive: 2.79%
COc1cc(/C=C(/C#N)c2nc3ccccc3[nH]2)ccc1OCC(=O)Nc1ccccc1C(C)C,–,inactive
O=C(COC(=O)c1c2c(nc3ccccc13)/C(=C\c1cccs1)CCC2)Nc1ccccc1,–,inactive
CC(Oc1ccc(Cl)cc1)C(=O)Nc1ncccn1 (stereo not given),–,inconclusive: -0.251%
COc1ccccc1NC(=O)C(=O)NCc1ccncc1,"inconclusive: 4.11 µM [falling, single point]",–

Structure (SMILES),Potency,"activity change, negative = inhibition"
O=C(CCS(=O)(=O)c1ccccc1)Nc1nc2cc3c(cc2s1)OCO3,"inconclusive: 3.16 µM [activator, full curve]",–
C=C(C)C1Cc2cc3ccc(=O)oc3cc2O1 (stereo not given),–,inconclusive: -11.7%
CN(CC(=O)Nc1nccs1)S(=O)(=O)c1ccc(F)cc1,–,inconclusive: 3.9%
Cc1ccc(-n2c(N)c(C(=O)N3CCN(C)CC3)sc2=S)cc1,–,inactive
COc1ccc(Cn2ccc(=O)c(Cc3c(Cl)cccc3Cl)c2C)cc1,–,inconclusive: 12.1%
c1ccc(-c2ccn3nnnc3n2)cc1,–,inactive
CCC1=NN2C(=N)/C(=C\c3cccn3-c3ccc(Cl)cc3)C(=O)N=C2S1,"inconclusive: 4.47 µM [rising, partial curve, poor fit]",–
Cc1ccc(C(=O)NC2CCCCC2)cc1,"inconclusive: 22.4 µM [falling, partial curve]",–
Cn1c(=O)[nH]c(=O)c2c1nc(SCC(O)CO)n2Cc1ccccc1Cl (stereo not given),–,inconclusive: -7.86%
CC(C)N1CCc2c(sc(NC(=O)CCS(=O)(=O)c3ccccc3)c2C#N)C1,–,inconclusive: -1.1%
CC(=O)Nc1ccc(S(=O)(=O)N2CCN(c3ccc(C)c(Cl)c3)CC2)cc1,"inconclusive: 3.26 µM [rising, full curve]",–
CCOC(=O)c1cnc2ccc(OCC)cc2c1NCc1cccnc1,–,inconclusive: 7.77%
CC(=O)N1CCc2cc(S(=O)(=O)CCC(=O)NCc3ccco3)ccc21,–,inconclusive: -25.8%
COC(=O)c1ccc(CSc2ccc3nnc(-c4ccccc4)n3n2)o1,"inconclusive: 5.8 µM [falling, full curve]",–
Cc1c(CN(C)C)c2c(n1Cc1ccccc1)C(=O)c1ccc(Br)cc1-2,–,inconclusive: 7.48%
COCCSc1nc(N)c2c3c(sc2n1)CN(C)CC3,–,inconclusive: -32.6%
O=C(NN=C(c1ccccc1)c1ccccn1)c1ccccc1,"inconclusive: 18.4 µM [falling, single point]",–
Cc1cccc(C(=O)O)c1[N+](=O)[O-],–,inconclusive: 5.34%
Nc1ncc(Br)cc1S(=O)(=O)Nc1cc(C(F)(F)F)cc(C(F)(F)F)c1,–,inconclusive: 1.16%
COc1ccc(C(C)=O)cc1CSc1nc(Nc2ccc(F)c(F)c2)c2ccccc2n1,–,inactive
Cc1cccn2c(=O)c(/C=C(\C#N)S(=O)(=O)c3ccccc3)c(N3CCC(C(N)=O)CC3)nc12,"inconclusive: 8.2 µM [rising, partial curve]",–
CC(=O)Nc1nc(=O)c2ccccc2s1,"inconclusive: 3.16 µM [falling, partial curve, poor fit]",–
COc1nc(C)ccc1-c1noc(-c2ccncc2)n1,–,inconclusive: 7.24%
COc1ccc(CCNc2oc(COc3ccccc3)nc2C#N)cc1,–,inactive
COc1ccc(-c2c3c([nH]c(=S)c2C#N)CCC3)cc1,–,inactive
CCC(=O)NC(c1ccccc1)c1nc2ccccc2[nH]1 (stereo not given),–,inconclusive: 3.44%
